{"source": "patent US20040148013A1", "about": "“Stent-based delivery statins to prevent restenosis” (priority 2003, published 2004)", "origin": "cited, not measured here", "system": "neointimal response to injury", "note": "For at least one compound, name, drawing or mass did not settle the structure.", "data": [{"smiles": "CO[C@H]1C[C@@H]2CC[C@@H](C)[C@@](O)(O2)C(=O)C(=O)N2CCCC[C@H]2C(=O)O[C@H]([C@H](C)C[C@@H]2CC[C@@H](O)[C@H](OC)C2)CC(=O)[C@H](C)/C=C(\\C)[C@@H](O)[C@@H](OC)C(=O)[C@H](C)C[C@H](C)/C=C/C=C/C=C/1C", "note": "[Rapamycin]", "values": [{"measurement": "neointimal response to injury", "setting": "pig coronary artery injury model", "value": "significantly reduce"}, {"measurement": "Rb phosphorylation within the vessel wall", "setting": "porcine injury model", "value": "inhibition of Rb phosphorylation"}, {"measurement": "p27 levels within the vessel wall", "setting": "porcine injury model", "value": "increased p27 levels"}]}]}
